Laboratory results reported in publication PMC7819943, “Rice protein-binding microarrays: a tool to detect cis-acting elements near promoter regions in rice”.
The list shows a part of the results.

Sequences of proteins named here, by UniProt entry; tags and fusion partners are left off.
UniProt Q0JBA9, entry or part of it: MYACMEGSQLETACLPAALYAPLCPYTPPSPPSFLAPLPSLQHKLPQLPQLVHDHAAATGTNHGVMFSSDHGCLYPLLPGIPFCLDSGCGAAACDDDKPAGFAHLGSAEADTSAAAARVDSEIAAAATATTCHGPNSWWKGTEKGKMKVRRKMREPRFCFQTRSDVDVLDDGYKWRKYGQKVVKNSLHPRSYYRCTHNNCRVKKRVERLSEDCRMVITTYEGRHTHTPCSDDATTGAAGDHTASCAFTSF

Each sequence was assayed against OsWRKY34 (Oryza sativa, UniProt Q0JBA9 1-250) (assay: protein-binding microarray (RPBM); PBS, 2% BSA, 51.3 ng/ul salmon testes DNA, 50 uM zinc acetate, 200 nM TF, 25 C, 1 h; high values mean tight binding). Conditions: protein: recombinant; tags: N-terminal polyhistidine and DsRed monomer fusion (pET32a); label: CyDye5-dUTP incorporated in the synthesized complementary strand; 3' TTTTT single-stranded linker to array surface; dsDNA, one strand shown.
Method in brief: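 The binding signal is fluorescence intensity per feature, in arbitrary units, read on an Axon 4000B scanner. Polyhistidine- and DsRed-tagged transcription factors (N-terminal fusions) from E. coli BL21-CodonPlus were purified on Ni–NTA and applied at 200 nM for 1 h at 25 °C to a double-stranded, BSA-blocked custom Agilent array in buffer with 50 µM zinc acetate.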
In the case of “TAGTTTGTATTATGTCCAACGTTTAACCGTCCATCTTATTCGGAGTCACCTAGTGCAG”, the binding signal is reported as 8650 fluorescence intensity (a.u.). With “TTCATTTGTGGCCAAAACGTCCAATTCAGTCATCCGTTTCCGGAGTCACCTAGTGCAG” the binding signal was 10300 fluorescence intensity (a.u.). For “CACATCAACCTGCACCAATCATGCCATCGAGATCACAACACGGAGTCACCTAGTGCAG”, the binding signal was 10400 fluorescence intensity (a.u.). For “GTATTAAACTTTTAGATAGAGGCAGTACTAGTTTTTTTTTCGGAGTCACCTAGTGCAG”, the binding signal was 8600 fluorescence intensity (a.u.). In the case of “TAGGATATTTAGTTGTGCTTGCAATGATGTCATTGCTTGTCGGAGTCACCTAGTGCAG”, the binding signal is reported as 8900 fluorescence intensity (a.u.). In the case of “AAATAAACCAAGTTCCAACGCGCACACACACACAACGAGCCGGAGTCACCTAGTGCAG”, the binding signal is reported as 8110 fluorescence intensity (a.u.). “GCTAGTCTTGCTTTTAACCTTTCATATCATATAAAATCTACGGAGTCACCTAGTGCAG” was tested, and the binding signal was 9210 fluorescence intensity (a.u.). “GGGTTTCCTTCGTTTCGTTGTTGAACGCGGCCGCTTGCCACGGAGTCACCTAGTGCAG” was tested, and the binding signal was 9300 fluorescence intensity (a.u.). With “ACTAATCGTCCTAGAATGTGTTATATTGTTGTAAGAGTTTCGGAGTCACCTAGTGCAG” the binding signal was 8170 fluorescence intensity (a.u.). In the case of “ATTAATTCACTCCAATAGCATCATCCAATTTCCCACTCACCGGAGTCACCTAGTGCAG”, the binding signal is reported as 8300 fluorescence intensity (a.u.). With “TATTTGGTTTAGGTTCTTTTTGTTTCGTAAATTTCTCTATCGGAGTCACCTAGTGCAG” the binding signal was 9420 fluorescence intensity (a.u.). “CTGCCTTCATACTAGCACATTCGTCAGTTATTATTAGCCTCGGAGTCACCTAGTGCAG” was tested, and the binding signal was 10600 fluorescence intensity (a.u.). For “GATTAGTTAAGGGATGCGGGATATATGGTTTTACGGTTTGCGGAGTCACCTAGTGCAG”, the binding signal was 8760 fluorescence intensity (a.u.). “TTTAAAGCTGTCACCTTTTCCCATCTCTCTCTCTCTCTCTCGGAGTCACCTAGTGCAG” was tested, and the binding signal was 8220 fluorescence intensity (a.u.). For “GATCGCCGGTTCGGTTTTTTCAACTATGGTCGTCGCTAAGCGGAGTCACCTAGTGCAG”, the binding signal was 11100 fluorescence intensity (a.u.). “ACAAACATCCTGTAGCCCCAACATTGCTTCACTTCAGGGTCGGAGTCACCTAGTGCAG” was tested, and the binding signal was 8450 fluorescence intensity (a.u.). For “GCCGTCCGCGCGTGGGGAGGGGCTCGCCGGCCGTCCGCGACGGAGTCACCTAGTGCAG”, the binding signal was 9020 fluorescence intensity (a.u.). In the case of “CCCACTCCACCTTCCCCGTTTTACACGCACCTACTCCTATCGGAGTCACCTAGTGCAG”, the binding signal is reported as 8030 fluorescence intensity (a.u.). In the case of “CCTCGCACCGCCCGATAATAATACGACCAAACCAAAGACACGGAGTCACCTAGTGCAG”, the binding signal is reported as 8120 fluorescence intensity (a.u.). For “AGGGGAGGGATGTTTGACGCCTTTGATAATATTTCAAGTACGGAGTCACCTAGTGCAG”, the binding signal was 10700 fluorescence intensity (a.u.). For “ATATCATGTTTATTATCTTGTTATTTTGGATTAAAATATGCGGAGTCACCTAGTGCAG”, the binding signal was 9720 fluorescence intensity (a.u.). For “ACGTCAACGTTCAAACCAGCTCGTCACGCTGTTATTCTCTCGGAGTCACCTAGTGCAG”, the binding signal was 10400 fluorescence intensity (a.u.). For “CGATGATGTGACTATATATGGCCGTGTTCCTCCCTCATTACGGAGTCACCTAGTGCAG”, the binding signal was 8310 fluorescence intensity (a.u.). “GACGGACAGGCCACTATGTATTGCTATGTATGGGTATTGCCGGAGTCACCTAGTGCAG” was tested, and the binding signal was 8730 fluorescence intensity (a.u.). “TTACCTCGAGTTTTGGAGCTATCCATTTGGTTCTTCAGTACGGAGTCACCTAGTGCAG” was tested, and the binding signal was 9380 fluorescence intensity (a.u.). In the case of “GCTAGTTGTAATATACACATAATTGTTGCTTCATTTCAACCGGAGTCACCTAGTGCAG”, the binding signal is reported as 9790 fluorescence intensity (a.u.). In the case of “CTCTTTTAGCCACCCTATCCCGCCGCCACCATCACCTTCTCGGAGTCACCTAGTGCAG”, the binding signal is reported as 8140 fluorescence intensity (a.u.). In the case of “GTTGTGTGCAGTGGCTGATGGGAGGAGGGAATGATCCAGACGGAGTCACCTAGTGCAG”, the binding signal is reported as 8580 fluorescence intensity (a.u.). “ATATTTCTTTGTCAAGTTTGATTACTGGCTCGACATGGGGCGGAGTCACCTAGTGCAG” was tested, and the binding signal was 8620 fluorescence intensity (a.u.). “AATTCAAGCAAATTTGGGGTGCTTTTCTGCTTGTTTCCCCCGGAGTCACCTAGTGCAG” was tested, and the binding signal was 8220 fluorescence intensity (a.u.). “CCCCACCAACTCGGCTGTTTTTGGCGCTACATTACACGTCCGGAGTCACCTAGTGCAG” was tested, and the binding signal was 9790 fluorescence intensity (a.u.). In the case of “GGTGGACTCCAGTGGTTGCCTTGCATACTTAGCTTGCCTTCGGAGTCACCTAGTGCAG”, the binding signal is reported as 8210 fluorescence intensity (a.u.). For “AAACATATGAGAAAAAGTCAACGGCGTCATCTATTAAAAACGGAGTCACCTAGTGCAG”, the binding signal was 8760 fluorescence intensity (a.u.). With “CACGCCCGTGCATATCCATCCGTTCTGCCTCGCCTACATGCGGAGTCACCTAGTGCAG” the binding signal was 10800 fluorescence intensity (a.u.). With “TGCATTACATGGGCCTTACCTTTGACTGTTTTGAACCCATCGGAGTCACCTAGTGCAG” the binding signal was 12400 fluorescence intensity (a.u.). For “TTTTATTCAAATGGAACTGTGTGACCGCTGCCTGTCCATGCGGAGTCACCTAGTGCAG”, the binding signal was 8040 fluorescence intensity (a.u.). In the case of “CCCGTCGACGCCTTCCACCGCCCGGCCTTGTCCTCCGTGCCGGAGTCACCTAGTGCAG”, the binding signal is reported as 9520 fluorescence intensity (a.u.). For “TTCAGTGTCAGCATATATACACGATTTATTTTCATGTTATCGGAGTCACCTAGTGCAG”, the binding signal was 8180 fluorescence intensity (a.u.). With “TGCTCCTCTAGACACTACGTCAGATCCTCACATCTCTGACCGGAGTCACCTAGTGCAG” the binding signal was 9020 fluorescence intensity (a.u.). For “TAGGTTTTGTTCTATTCGGTTCTAGGTTCTGTTCTATTCGCGGAGTCACCTAGTGCAG”, the binding signal was 12400 fluorescence intensity (a.u.). “TGTTTAGAGTGGTTCAGGTTTGCCTTTTCTTTGCTTCGCTCGGAGTCACCTAGTGCAG” was tested, and the binding signal was 9770 fluorescence intensity (a.u.). In the case of “CATCCACCGCGCCGTCGCCCAGACCACCACCTCCACCGCTCGGAGTCACCTAGTGCAG”, the binding signal is reported as 8580 fluorescence intensity (a.u.).
